Lever weight and Spleen weight data for two molecules are collected here from patent US6423335B1, “Modified milk powder composition” (priority 1999, dated 2002).

This data set is described as follows: Low protein diet feeding in rats: body weight, weight of tissues, BUN, blood profile (Example 1). As to conditions: male rats, 5% (w/w) in 3% protein diet, three weeks. It is filed as in vivo, rats (the Donryu strain). The source says: Four-week-age male rats (the Donryu strain) were fed 20% protein diet for one week. Then, glutamine (Gln) and glutamic acid (Glu) each were mixed into 3% protein diet at the level of 5% (w/w) and offered to the rats for three weeks. Also, a 20% protein diet group and a 3% protein diet group were set as controls. Upon each rat, body weight, weight of tissues, blood urea nitrogen (BUN), the level of leukocytes, the level of erythrocytes, hematocrit, the level of platelets, and production of TNF-α by peritoneal macrophage as an index of immune response were determined.

The molecule `NC(=O)CC[C@H](N)C(=O)O` [Gln, glutamine] registered a Lever weight of 3.8 ± 0.1 g/100 g/body weight and a Spleen weight of 175.6 ± 8.6 mg/100 g body weight.
In the case of `N[C@@H](CCC(=O)O)C(=O)O` [Glu, glutamic acid], the Lever weight is listed as 3.8 ± 0.2 g/100 g/body weight and the Spleen weight is on record as 179.7 ± 8.0 mg/100 g body weight.
